Data: patent publication EP1591450A1 (YAMANOUCHI PHARMACEUTICAL CO. LTD., priority 2003, dated 2004)

Experiment: general procedure: Fmoc solid-phase peptide synthesis; Fmoc-Gly-Wang Resin; HBTU/DIEA
Conditions: whole synthesis, RP-HPLC peak area ratio
In the case of “9-fluorenylmethylcarbonyl (Fmoc)-glycyl-hydroxyprolyl-alanyl-seryl-cyclohexylglycyl-glutamyl-seryl-isoleucyl-glycine (Gly-Hyp-Ala-Ser-Chg-Gln-Ser-Leu-Gly) (Fmoc-GHypASChgQSLG)”, the “final HPLC purity” value is reported as 100%.
For “9-fluorenylmethylcarbonyl (Fmoc)-glycyl-prolyl-glutamyl-glycyl-isoleucyl-tryptophanyl-glycyl-glutamyl-glycine (Gly-Pro-Gln-Gly-Ile-Trp-Gly-Gln-Gly) (Fmoc-GPQGIWGQG)”, the “final HPLC purity” value was 98.4%.
With “9-fluorenylmethylcarbonyl (Fmoc)-glycyl-prolyl-leucyl-glycyl-isoloucyl-alanyl-glycyl-glutamyl-glycine (Gly-Pro-Leu-Gly-Be-Ala-Gly-Gln-Gly) (Fmoc-GPLGIAGQG)” the “final HPLC purity” value was 98.7%.
In the case of “9-fluorenylmethyloxycarbonyl (Fmoc)-glycyl-prolyl-glutamyl-glycyl-isoleucyl-alanyl-glycyl-tryptophanyl-glycine (Gly-Pro-Gln-Gly-Ile-Ma-Gly-Trp-Gly) (Fmoc-GPQGIAGWG)”, the “final HPLC purity” value is reported as 99.5%.
